In paper PMC8201479, “Trisubstituted Pyrrolinones as Small-Molecule Inhibitors Disrupting the Protein–RNA Interaction of LIN28 and Let-7” (ACS Medicinal Chemistry Letters, 2021):
Construct, isoform or probe ends are uncertain for at least one entry. At least one verdict was read from the data and is not stated in words by the source. Protein sequences can lack the tags named with them.

Biological target: T1, LIN28A (16-187), untagged (human) (UniProt Q9H9Z2)
T1 sequence (looked up): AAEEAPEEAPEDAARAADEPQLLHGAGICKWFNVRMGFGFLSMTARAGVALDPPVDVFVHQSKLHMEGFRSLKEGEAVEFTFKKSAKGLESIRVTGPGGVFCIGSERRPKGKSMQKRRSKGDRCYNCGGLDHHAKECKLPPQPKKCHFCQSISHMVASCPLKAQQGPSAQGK
Assay: EMSA
Conditions: 10 nM protein, 5 nM RNA, 50 uM ZnCl2; EMSA: 50 mM Tris pH 7.5, 100 mM NaCl, 10 mM beta-ME, 50 uM ZnCl2, 2% DMSO, 0.01% Tween 20, 12% glycerol, 2 h, room temperature; recombinant protein; residues 16-187; label: 3' Cy3

“GGGGUAGUGAUUUUACCCUGUUUAGGAGAU [preE-let-7f-1-Cy3]”: binds.
